# In all, about 260,000 compounds went through this assay and about 1,500 (0.58%) were called active. The inconclusive results got no clear call from the source; some entries with a clear call stand among them for comparison.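 Rule for the calls: active = inhibition above a set limit at one or more doses, reproduced on every date tested; inconclusive = results disagree between test dates, or hit never tested in dose response; inactive = the rest.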
# Chains of the proteins cited; added tags and fusions are not shown. Lines headed by an entry give the natural chain unless they say otherwise; changes in a name come on top.
# UniProt P69720: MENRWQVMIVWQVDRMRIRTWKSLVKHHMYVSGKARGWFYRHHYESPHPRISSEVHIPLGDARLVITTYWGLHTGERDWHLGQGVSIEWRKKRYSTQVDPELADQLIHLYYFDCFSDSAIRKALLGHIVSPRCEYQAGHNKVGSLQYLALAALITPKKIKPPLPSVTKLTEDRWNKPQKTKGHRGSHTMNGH
# UniProt P69721: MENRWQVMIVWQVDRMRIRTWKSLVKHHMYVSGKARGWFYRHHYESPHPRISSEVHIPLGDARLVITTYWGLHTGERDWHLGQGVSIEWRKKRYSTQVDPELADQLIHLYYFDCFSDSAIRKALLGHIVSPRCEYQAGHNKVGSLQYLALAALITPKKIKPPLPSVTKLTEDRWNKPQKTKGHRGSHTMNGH
# UniProt P69722: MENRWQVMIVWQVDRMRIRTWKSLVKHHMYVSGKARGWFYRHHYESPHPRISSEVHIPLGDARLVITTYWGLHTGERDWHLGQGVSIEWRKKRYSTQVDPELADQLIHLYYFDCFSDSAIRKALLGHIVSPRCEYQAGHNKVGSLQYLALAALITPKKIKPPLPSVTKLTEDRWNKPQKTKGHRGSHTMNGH
# UniProt P69723: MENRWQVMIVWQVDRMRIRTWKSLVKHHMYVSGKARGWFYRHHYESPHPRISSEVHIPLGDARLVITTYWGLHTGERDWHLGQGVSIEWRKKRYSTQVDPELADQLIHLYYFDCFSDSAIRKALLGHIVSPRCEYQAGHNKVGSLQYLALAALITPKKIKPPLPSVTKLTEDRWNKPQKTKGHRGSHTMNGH
# UniProt Q9HC16: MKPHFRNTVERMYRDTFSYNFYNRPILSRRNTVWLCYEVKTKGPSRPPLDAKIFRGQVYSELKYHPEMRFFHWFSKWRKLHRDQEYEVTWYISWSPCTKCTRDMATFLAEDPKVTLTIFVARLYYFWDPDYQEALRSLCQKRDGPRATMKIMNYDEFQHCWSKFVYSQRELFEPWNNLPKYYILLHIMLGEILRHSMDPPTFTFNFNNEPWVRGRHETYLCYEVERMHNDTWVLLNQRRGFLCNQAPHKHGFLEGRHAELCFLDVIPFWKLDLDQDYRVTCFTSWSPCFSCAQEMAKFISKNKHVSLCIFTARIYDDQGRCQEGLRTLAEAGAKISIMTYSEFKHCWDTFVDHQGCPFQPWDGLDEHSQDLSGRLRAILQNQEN
# Biological target: Virion infectivity factor (Human immunodeficiency virus type 1 group M subtype B (isolate BH10)) + Virion infectivity factor (Human immunodeficiency virus type 1 group M subtype B (isolate BRU/LAI)) + Virion infectivity factor (Human immunodeficiency virus type 1 group M subtype B (isolate PCV12)) + Virion infectivity factor (Human immunodeficiency virus type 1 group M subtype B (isolate HXB2)) + DNA dC->dU-editing enzyme APOBEC-3G (Homo sapiens) (UniProt P69720+P69721+P69722+P69723+Q9HC16)
# Experiment: inhibitors of Vif binding to APOBEC3G peptide, primary screen, biochemical, TR-FRET, GST-Vif 1-94, biotin-A3G peptide, dose response retest (AID 1117319);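 note: Vif residues 1-94 fused to GST binding biotinylated APOBEC3G peptide 110-148; 0% = full assay without inhibitor and 100% = GST in place of GST-Vif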
# Conditions: stronger effect = higher value
row,SMILES,inhibition
1,CC(C)CC1(C(=O)NCc2ccccn2)C=CCN1C(=O)c1ccccc1 (stereo not drawn),inconclusive: 35.6%
2,CC(C)c1onc(C(=O)Nc2sc3c(c2C#N)CCC3)c1[N+](=O)[O-],inconclusive: 52%
3,COc1ccc(CN2C(=O)CC(Cc3ccc(C)cc3)C2=O)cc1OC (stereo not drawn),inconclusive: 39.1%
4,CCOC(=O)c1c(NC(=S)Nc2ccccc2)sc2c1CCN(C)C2,inconclusive: 53.7%
5,COC(=O)C1CCN(S(=O)(=O)c2c[nH]c(=O)[nH]c2=O)CC1,inactive: -3.67%
6,O=C(C1=NN[C@@H]2C(=O)N(c3ccccc3C(F)(F)F)C(=O)[C@H]12)c1cnccn1,inconclusive: 37.7%
7,C[C@H](NC(=O)c1[nH]cnc1C(=O)Nc1ccc(CNC(=O)OC(C)(C)C)cc1)C(=O)OCc1ccccc1,inconclusive: 35.9%
8,Cc1nc(-c2cccc(-c3noc(C)n3)c2)no1,inconclusive: 48.7%
9,CCOc1ccc(S(=O)(=O)Nc2ccccc2C(=O)NCC2CCCO2)cc1 (stereo not drawn),inconclusive: 36.5%
10,CC(=O)N1CCN(c2cc3c(cc2F)c(=O)c(C(=O)O)cn3C2CC2)CC1,inconclusive: 64.6%
11,COc1ccc(Cl)cc1NC(=S)NNC(=O)c1cccs1,inconclusive: 58%
12,Cc1ccc(C)c(OCC(=O)Nc2ccc(S(=O)(=O)N3CCN(C)CC3)cc2)c1,inconclusive: 34.6%
13,Cc1c(Cl)cccc1NC(=S)/C(=C(\[O-])c1ccc(Cl)s1)[n+]1ccccc1,inconclusive: 45.5%
14,O=C(CCCN1C(=O)/C(=C\c2cccs2)SC1=S)Nc1ccccc1O,inactive: 3.84%
15,COc1ccc(-n2c(=O)cc(N3CCN(c4ccccc4F)CC3)[nH]c2=O)cc1,inconclusive: 62%
16,C=CCN(CC=C)CCOc1ccccc1,inconclusive: 43.1%
17,CCCCCCC1CC(=O)NC(=O)N1 (stereo not drawn),inconclusive: 54%
18,O=C(Nc1sc2c(c1C(=O)O)CCCC2)c1cccs1,inconclusive: 35.1%
19,COCCNC(=O)Nc1ccc2nc(-c3cccs3)c(-c3cccs3)nc2c1,inactive: 13.9%
20,CCN(CC)C(=O)[C@H]1C[C@H](CC(=O)NCc2ccco2)C(=O)N2CCc3c([nH]c4cc(-c5ccco5)ccc34)[C@]12C,inactive: -1.87%
21,C=CCN(CC=C)S(=O)(=O)c1ccc(NC(=S)NC(=O)/C=C/c2ccc(C)cc2)cc1,inconclusive: 55.3%
22,COc1ccc(/C=N\NS(=O)(=O)c2ccc(Br)cc2)cc1COc1ccccc1[N+](=O)[O-],inconclusive: 33.9%
23,CC(=O)O[C@@H]1C[C@H]2C(C)(C)C(=O)C=C[C@]2(C)[C@H]2CC[C@@]3(C)[C@H](c4ccoc4)OC(=O)[C@H]4O[C@]43[C@@]21C,inconclusive: 34.1%
24,CC(C)Oc1ccc(C(CC(=O)NCc2ccco2)c2ccccc2)cc1 (stereo not drawn),inconclusive: 62.3%
25,O=[N+]([O-])c1cc([N+](=O)[O-])c2c(=Nc3ccccc3)n(-c3ccccc3)n(O)c2c1,inconclusive: 58.9%
26,CCC(C)NC(=O)CSC1=Nc2ccccc2C2=NC(CC(=O)NCc3ccc(F)cc3)C(=O)N12 (stereo not drawn),inconclusive: 41.6%
27,CCn1cc(C(=O)Nc2ccc3c(c2)OCCO3)c2cc(OC)c(OC)cc2c1=O,inconclusive: 37.6%

row,SMILES,inhibition
1,COc1ccc(N2C(=O)CC(Nc3ccc(N4CCOCC4)cc3)C2=O)c(OC)c1 (stereo not drawn),inconclusive: 84.3%
2,CCOC(=O)c1cc(C#N)c(Nc2ccc(C)cc2)nc1C(F)(F)F,inconclusive: 45.2%
3,CCOc1ccc(N(C(C)=O)c2nc(C)cc(C)c2C#N)cc1,inconclusive: 44.4%
4,O=S(=O)(NCc1ccco1)c1cccc2cccnc12,inconclusive: 49.8%
5,COc1cc(O)oc1C=Nc1ccc(C(F)(F)F)cc1,inconclusive: 38.8%
6,CCOc1cc(CNCCO)cc(Br)c1OCc1ccc(Cl)cc1,inactive: -0.39%
7,NC(=O)C1CCN(C(=O)c2cc3n(n2)C(C(F)(F)F)CC(c2ccco2)N3)CC1 (stereo not drawn),inactive: 21.3%
8,Cc1ccc(S(=O)(=O)Nc2nc3cc(C)c(C)cc3[nH]2)cc1,inconclusive: 54.5%
9,O=C(NNC(=O)c1nn(-c2ccc(F)cc2)ccc1=O)c1ccccc1Cl,inconclusive: 34%
10,N=c1n(CC(=O)c2cccc([N+](=O)[O-])c2)c2ccccc2n1Cc1ccccc1,inconclusive: 54.2%
11,Cc1ccc[n+](CC(=O)Nc2ccc([N+](=O)[O-])cc2Cl)c1,inconclusive: 42.4%
12,CCOc1ccc2nc(NC(=O)Cn3cnc4c3c(=O)n(C)c(=O)n4C)sc2c1,inconclusive: 51.4%
13,COCCCn1c(SCc2cccc(OC)c2)nc2cc(OC)c(OC)cc2c1=N,inconclusive: 36.5%
14,O=C(Nc1ccc(OCC(F)(F)C(F)F)c(C(F)(F)F)c1)c1ccccc1O,inconclusive: 35.4%
15,COc1ccc(NC(=O)C2CCCN(S(=O)(=O)c3c(C)[nH]c(=O)[nH]c3=O)C2)cc1 (stereo not drawn),inconclusive: 60.5%
16,CCOc1ccc2[nH]c(=O)c(CN(CC3COCCO3)C(=O)C3CC3)cc2c1 (stereo not drawn),inconclusive: 41.7%
17,Cc1noc(C)c1COc1ccc(C(=O)NCCc2ccccn2)cc1,inconclusive: 43.6%
18,CCN(C1CCS(=O)(=O)C1)S(=O)(=O)c1cccs1 (stereo not drawn),inconclusive: 38.4%
19,CCCOc1cccc(-c2cc(C(=O)NN)c3ccccc3n2)c1,inconclusive: 38.2%
20,CC(NC(=O)c1ccc(CS(=O)(=O)c2cccc(C(F)(F)F)c2)o1)c1ccc2c(c1)OCCO2 (stereo not drawn),inconclusive: 57.8%
21,COC(=O)CSc1nnc([C@H](CC(C)C)NC(=O)OC(C)(C)C)o1,inconclusive: 33.5%
22,O=[n+]1c2c(n([O-])c3cc(F)c(N4CCCC4)cc31)CCCC2,inconclusive: 40.6%
23,O=c1cc(CSc2nnc(Nc3ccccc3F)s2)nc2sccn12,inactive: -10.7%
24,O=C(C1CCCCC1)N1CCN(c2ccnc3cc(Cl)ccc23)CC1,inconclusive: 53.6%
25,CCCC1=NN(C(=O)Cc2ccc(OC)c(OC)c2)C(O)(C(F)(F)F)C1 (stereo not drawn),inconclusive: 41.7%
26,Cc1cc(C)nc(SCc2ccc([N+](=O)[O-])cc2)n1,inconclusive: 37.6%

# Molecules above that contain a Cl atom (six):
row,SMILES,inhibition
11,COc1ccc(Cl)cc1NC(=S)NNC(=O)c1cccs1,inconclusive: 58%
13,Cc1c(Cl)cccc1NC(=S)/C(=C(\[O-])c1ccc(Cl)s1)[n+]1ccccc1,inconclusive: 45.5%
6,CCOc1cc(CNCCO)cc(Br)c1OCc1ccc(Cl)cc1,inactive: -0.39%
9,O=C(NNC(=O)c1nn(-c2ccc(F)cc2)ccc1=O)c1ccccc1Cl,inconclusive: 34%
11,Cc1ccc[n+](CC(=O)Nc2ccc([N+](=O)[O-])cc2Cl)c1,inconclusive: 42.4%
24,O=C(C1CCCCC1)N1CCN(c2ccnc3cc(Cl)ccc23)CC1,inconclusive: 53.6%

# Quoted from the listing:
# inhibition with `O=C(CCCN1C(=O)/C(=C\c2cccs2)SC1=S)Nc1ccccc1O` is entered as inactive: 3.84%
# inhibition with `COc1ccc(N2C(=O)CC(Nc3ccc(N4CCOCC4)cc3)C2=O)c(OC)c1` (stereo not drawn) is entered as inconclusive: 84.3%

# From PubChem BioAssay AID1117319 (Southern Research Institute, 2015)
